This experiment in a line: qHTS Assay for Lipid Storage Modulators in Drosophila S3 Cells.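 For cell number change: cells counted by Cell Tracker Red CMTPX staining in the red channel.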 The settings on record: BODIPY lipid droplet fluorescence, 18-24 h; for cell number change: measured here: cell count max response, cells fed with added oleic acid. The procedure, abridged: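 Drosophila S3 cells got compounds at several concentrations plus oleic acid (400 uM solution). Laser-scanning cytometry with 488 nm excitation read lipid droplets at 500-530 nm and cells at 575-640 nm. Percent activity was relative to 20 uM Triacsin C.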
In general terms: Quantitative high-throughput screening tests each substance at several concentrations.

[1] abbreviates: measured here: cell number channel AC50, cells fed with added oleic acid.
The mark [2] stands for this setting: measured here: lipid fluorescence (Fed channel) AC50, cells fed with added oleic acid.

This note sets out measurements from PubChem BioAssay AID2685 (National Center for Advancing Translational Sciences (NCATS), 2010).

Some of the results follow. Shown are side measurements of this screen, not its main read-out; they come without a call. Most of these compounds were active or inconclusive in the main read-out, so they are no random draw. Words in brackets tell the shape of the fitted curve; partial curves, single points and poor fits give uncertain potencies.

Regarding `CCn1c(SC(C)C)nnc1-c1cc(-c2ccccc2)sc1N`, the cell number change is -64.6%. In addition, the AC50 (usually the concentration giving half of the maximal activity seen) under setting [1] was 9.2 µM [falling, partial curve]. The concentration at half-maximal activity (AC50) under setting [2] is 5.8 µM [falling, partial curve].

For the compound `COc1cc(/C=C/C(=O)OCC(=O)NC(=O)NC(C)(C)C)ccc1OCC#N`, the cell number change came to 25.6%. In addition, the AC50 under setting [2] is 9.2 µM [rising, partial curve].

For `COc1ccc2c(c1)sc1nc(-c3ccccc3)cn12`, the cell number change was -11%. Moreover, the half-maximal activity concentration (AC50) under setting [2] was 1.16 µM [rising, single point].

As to `O=C(NCCN1C(=O)S/C(=C\c2ccccc2F)C1=O)C1CC(=O)N(Cc2ccccc2)C1` (stereo not drawn), the cell number change was -4.68%.

Regarding `Cc1ccc(OCCN2CCCC2)cc1`, the cell number change came out at 1.66%. Also, under setting [2], the AC50 was 0.58 µM [rising, single point].

For the compound `O=C(Nc1ccccc1)c1ccc(Nc2c([N+](=O)[O-])cc([N+](=O)[O-])c3ccccc23)cc1`, the cell number change is -29.7%.

For the compound `C=CCN(CC=C)C(=O)COC(=O)c1n[nH]c2ccccc12`, the cell number change turned out to be 59.7%. Also, under setting [1], the half-maximal activity concentration (AC50) is 18.4 µM [rising, single point].

With `Cn1cc([N+](=O)[O-])c(C(=O)NCC(=O)O)n1`, the cell number change was -25.7%. In addition, the AC50 under setting [1] is 0.164 µM [rising, full curve, poor fit].

For `O=S(=O)(c1ccc(Br)cc1)N1CCCN(Cc2ccccc2F)CC1`, the cell number change came out at 32%. For the same compound, under setting [1], the concentration at half-maximal activity (AC50) was 20.6 µM [rising, single point].

On to `COc1ccc(OC)c(NC(=O)c2c3c(nc4ccccc24)CCC3)c1`, for which the cell number change was 2.59%.

As for `O=C(Nc1ccccc1C(F)(F)F)C(O)(c1ccccc1)C1CCCCC1` (stereo not drawn), the cell number change is -8.47%. The half-maximal activity concentration (AC50) under setting [2] is 0.411 µM [falling, full curve].

With `Cc1cccc(NC(=O)c2cc(-c3ccccn3)nc3ccccc23)c1C`, the cell number change was determined as 72.6%.

With `Cc1ccccc1OCc1nc2ccccc2c(=O)n1/N=C/c1cn[nH]c1-c1ccc(Br)cc1`, the half-maximal activity concentration (AC50) under setting [1] was 0.82 µM [falling, full curve].

As to `CCn1c(SCC(=O)N2CCc3ccccc32)nnc1-c1ccco1`, the cell number change is -12%. The half-maximal activity concentration (AC50) under setting [2] was 13 µM [falling, partial curve, poor fit].

As to `OCc1nc2nc(Cl)c(Cl)nc2[nH]1`, the cell number change is -48.5%. In addition, under setting [1], the AC50 was 14.6 µM [falling, partial curve]. For the same compound, under setting [2], the AC50 was 25.9 µM [falling, partial curve].

In the case of `Cc1ccc(C)c(OCC(=O)Nc2ccccc2N2CCCC2)c1`, the cell number change is 27.8%. Under setting [2], the concentration at half-maximal activity (AC50) was 29.1 µM [rising, single point].

`O=C(NCC(c1ccco1)N1CCCC1)c1cccc(S(=O)(=O)N2CCOCC2)c1` (stereo not drawn): the cell number change was 14.9%. In addition, under setting [2], the AC50 is 1.46 µM [falling, full curve, poor fit].

As for `CC(=O)NCCc1c(C)n(Cc2ccccc2)c2ccccc12`, the cell number change is -5.49%. Under setting [2], the half-maximal activity concentration (AC50) is 6.51 µM [falling, single point].
